Test results as given in patent US10377778B2, “Lead and thorium compounds” (Sciencons AS, priority 2017, dated 2019).
Some results were stated once for a whole list of compounds, not compound by compound.

System: C4-2 cells
Assay: Prostate cancer cell binding of ^212Pb-labeled ligands
Design: species or system human
Settings: labeled with ^212Pb; about 1 ng radioligand, C4-2 cells 5×10^7 per ml, 1 h
Description: The cell binding fractions measured by adding about 1 ng of radioligand to 0.2 ml of C4-2 cells (5×10^7 cells per ml) in a 5 ml test tube and incubate for 1 h before measuring applied activity, wash cells 3 times with 0.5 ml 0.5% bovine serum albumin in DPBS and thereafter recount the washed cell pellet. […] Nonspecific binding was measured by blocking the cells with excess 10 μg/ml of unlabelled ligand before adding radioligand.

`O=C(O)CC[C@H](NC(=O)N[C@@H](CCCCNC(=O)[C@H](Cc1ccc2ccccc2c1)NC(=O)[C@H]1CC[C@H](CNC(=O)CN2CCN(CC(=O)O)CCN(CC(=O)O)CCN(CC(=O)O)CC2)CC1)C(=O)O)C(=O)O` [PSMA-617, reference compound] was tested, and the “% bound (cell binding fraction) after subtracting nonspecific binding” value was 40-53%.
In the case of `NC(=O)CN1CCN(CC(N)=O)CCN(CC(N)=O)C(Cc2ccc(NC(=S)NC[C@H]3CC[C@H](C(=O)N[C@@H](Cc4ccc5ccccc5c4)C(=O)NCCCC[C@H](NC(=O)N[C@@H](CCC(=O)O)C(=O)O)C(=O)O)CC3)cc2)CN(CC(N)=O)CC1` (stereo partly drawn) [p-SCN-Bn-TCMC-PSMA ligand 1, (((1S)-1-carboxy-5-((2S)-3-(naphthalen-2-yl)-2-((1r,4S)-4-((3-(4-((1,4,7,10-tetrakis(2-amino-2-oxoethyl)-1,4,7,10-tetraazacyclododecan-2-yl)methyl)phenyl)thioureido)methyl)cyclohexane-1-carboxamido)propanamido)pentyl)carbamoyl)-L-glutamic acid; trifloroacetic acid (1:4)], the “% bound (cell binding fraction) after subtracting nonspecific binding” value is reported as 40-53%.
